# In the supplement of paper PMC10849652:
# Sequences of proteins named here, by UniProt entry; tags and fusion partners are left off. A change or cut given only in a name is not applied to a line headed by its entry.
# UniProt P21964: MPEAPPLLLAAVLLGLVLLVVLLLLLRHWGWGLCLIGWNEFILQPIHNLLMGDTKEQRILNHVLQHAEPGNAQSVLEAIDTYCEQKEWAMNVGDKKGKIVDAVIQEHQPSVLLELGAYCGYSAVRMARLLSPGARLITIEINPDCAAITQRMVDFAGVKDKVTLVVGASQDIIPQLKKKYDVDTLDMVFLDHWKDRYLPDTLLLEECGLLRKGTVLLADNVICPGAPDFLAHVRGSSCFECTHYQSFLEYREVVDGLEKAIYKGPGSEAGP
# UniProt Q9BR76, whole entry, looked up: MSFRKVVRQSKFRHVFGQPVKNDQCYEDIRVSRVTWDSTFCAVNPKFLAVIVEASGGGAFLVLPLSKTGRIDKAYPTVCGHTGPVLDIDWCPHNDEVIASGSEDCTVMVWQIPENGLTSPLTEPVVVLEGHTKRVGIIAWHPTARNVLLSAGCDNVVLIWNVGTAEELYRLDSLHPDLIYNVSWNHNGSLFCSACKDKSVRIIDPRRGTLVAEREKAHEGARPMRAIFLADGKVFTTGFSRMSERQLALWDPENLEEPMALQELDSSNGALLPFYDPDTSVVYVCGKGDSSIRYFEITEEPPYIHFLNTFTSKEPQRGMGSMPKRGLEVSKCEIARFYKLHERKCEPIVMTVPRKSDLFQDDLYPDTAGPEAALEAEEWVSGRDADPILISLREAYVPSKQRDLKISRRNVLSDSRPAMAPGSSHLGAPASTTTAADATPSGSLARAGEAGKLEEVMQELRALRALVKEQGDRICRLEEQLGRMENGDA
# UniProt Q99627: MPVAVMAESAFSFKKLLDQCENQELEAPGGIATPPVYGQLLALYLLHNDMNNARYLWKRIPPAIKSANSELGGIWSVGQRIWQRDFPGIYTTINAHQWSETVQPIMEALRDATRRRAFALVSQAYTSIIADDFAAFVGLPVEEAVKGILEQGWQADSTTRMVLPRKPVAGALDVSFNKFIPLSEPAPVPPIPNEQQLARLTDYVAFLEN
# UniProt Q9NYJ1, whole entry, looked up: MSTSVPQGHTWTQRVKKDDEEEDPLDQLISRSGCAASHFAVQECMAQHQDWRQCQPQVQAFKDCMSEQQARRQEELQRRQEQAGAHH
# UniProt A5YKK6, whole entry, looked up: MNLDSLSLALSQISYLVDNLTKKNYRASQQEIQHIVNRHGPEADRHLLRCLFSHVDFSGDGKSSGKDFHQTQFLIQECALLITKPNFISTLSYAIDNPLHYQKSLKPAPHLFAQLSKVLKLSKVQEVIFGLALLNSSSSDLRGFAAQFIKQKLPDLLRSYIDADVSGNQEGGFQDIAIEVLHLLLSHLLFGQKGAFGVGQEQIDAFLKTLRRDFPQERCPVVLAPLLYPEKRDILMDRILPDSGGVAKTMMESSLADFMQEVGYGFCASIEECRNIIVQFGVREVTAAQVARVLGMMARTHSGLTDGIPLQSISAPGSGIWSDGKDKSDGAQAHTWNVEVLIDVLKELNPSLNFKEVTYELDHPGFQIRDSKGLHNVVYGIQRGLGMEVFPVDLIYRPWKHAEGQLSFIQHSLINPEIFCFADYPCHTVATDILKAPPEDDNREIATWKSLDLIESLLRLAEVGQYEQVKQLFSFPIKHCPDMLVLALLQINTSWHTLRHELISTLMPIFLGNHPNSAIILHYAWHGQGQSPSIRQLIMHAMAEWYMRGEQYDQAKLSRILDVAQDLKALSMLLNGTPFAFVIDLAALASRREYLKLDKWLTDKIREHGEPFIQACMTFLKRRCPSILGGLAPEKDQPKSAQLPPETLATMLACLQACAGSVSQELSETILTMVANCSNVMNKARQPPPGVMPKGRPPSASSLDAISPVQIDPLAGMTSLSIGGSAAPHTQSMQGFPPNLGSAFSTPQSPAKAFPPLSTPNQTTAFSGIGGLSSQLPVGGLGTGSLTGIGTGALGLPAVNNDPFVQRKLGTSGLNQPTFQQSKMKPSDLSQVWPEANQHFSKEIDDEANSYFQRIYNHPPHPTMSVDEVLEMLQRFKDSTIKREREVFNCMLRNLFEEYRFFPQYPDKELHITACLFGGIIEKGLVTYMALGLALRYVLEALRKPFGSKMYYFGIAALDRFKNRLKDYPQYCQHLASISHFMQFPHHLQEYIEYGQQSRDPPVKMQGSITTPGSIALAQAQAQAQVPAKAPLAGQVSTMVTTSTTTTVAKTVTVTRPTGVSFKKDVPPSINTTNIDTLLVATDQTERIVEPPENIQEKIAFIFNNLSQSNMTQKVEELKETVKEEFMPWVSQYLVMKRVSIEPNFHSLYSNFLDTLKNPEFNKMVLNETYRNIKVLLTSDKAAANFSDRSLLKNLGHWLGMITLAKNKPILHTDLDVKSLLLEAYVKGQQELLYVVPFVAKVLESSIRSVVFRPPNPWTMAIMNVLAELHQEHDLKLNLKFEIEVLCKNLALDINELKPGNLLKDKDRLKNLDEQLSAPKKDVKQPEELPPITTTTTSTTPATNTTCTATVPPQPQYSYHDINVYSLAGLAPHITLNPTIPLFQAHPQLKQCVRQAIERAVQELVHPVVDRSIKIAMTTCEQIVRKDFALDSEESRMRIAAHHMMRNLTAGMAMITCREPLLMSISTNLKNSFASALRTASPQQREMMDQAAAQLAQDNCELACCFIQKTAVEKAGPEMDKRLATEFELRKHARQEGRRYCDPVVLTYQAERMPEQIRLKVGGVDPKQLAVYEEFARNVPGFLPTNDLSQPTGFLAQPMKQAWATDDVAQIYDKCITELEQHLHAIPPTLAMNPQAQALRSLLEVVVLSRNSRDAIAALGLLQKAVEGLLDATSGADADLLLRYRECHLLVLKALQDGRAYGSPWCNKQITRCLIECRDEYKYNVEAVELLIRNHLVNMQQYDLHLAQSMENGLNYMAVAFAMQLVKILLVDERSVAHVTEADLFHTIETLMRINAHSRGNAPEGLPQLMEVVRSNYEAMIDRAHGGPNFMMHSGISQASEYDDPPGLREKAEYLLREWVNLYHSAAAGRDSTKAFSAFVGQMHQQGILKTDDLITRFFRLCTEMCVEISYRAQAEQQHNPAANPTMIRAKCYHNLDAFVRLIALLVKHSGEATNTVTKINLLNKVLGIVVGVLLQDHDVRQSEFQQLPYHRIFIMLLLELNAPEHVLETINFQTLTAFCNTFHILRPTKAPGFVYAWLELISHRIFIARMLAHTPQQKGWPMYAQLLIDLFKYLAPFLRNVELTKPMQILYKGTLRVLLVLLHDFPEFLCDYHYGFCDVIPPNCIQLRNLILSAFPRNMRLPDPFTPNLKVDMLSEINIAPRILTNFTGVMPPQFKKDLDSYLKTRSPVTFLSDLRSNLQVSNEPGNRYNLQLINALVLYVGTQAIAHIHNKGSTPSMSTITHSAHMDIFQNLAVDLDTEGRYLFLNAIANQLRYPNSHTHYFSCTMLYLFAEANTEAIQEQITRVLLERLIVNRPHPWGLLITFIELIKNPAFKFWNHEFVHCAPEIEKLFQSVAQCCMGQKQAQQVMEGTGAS
# UniProt Q92828: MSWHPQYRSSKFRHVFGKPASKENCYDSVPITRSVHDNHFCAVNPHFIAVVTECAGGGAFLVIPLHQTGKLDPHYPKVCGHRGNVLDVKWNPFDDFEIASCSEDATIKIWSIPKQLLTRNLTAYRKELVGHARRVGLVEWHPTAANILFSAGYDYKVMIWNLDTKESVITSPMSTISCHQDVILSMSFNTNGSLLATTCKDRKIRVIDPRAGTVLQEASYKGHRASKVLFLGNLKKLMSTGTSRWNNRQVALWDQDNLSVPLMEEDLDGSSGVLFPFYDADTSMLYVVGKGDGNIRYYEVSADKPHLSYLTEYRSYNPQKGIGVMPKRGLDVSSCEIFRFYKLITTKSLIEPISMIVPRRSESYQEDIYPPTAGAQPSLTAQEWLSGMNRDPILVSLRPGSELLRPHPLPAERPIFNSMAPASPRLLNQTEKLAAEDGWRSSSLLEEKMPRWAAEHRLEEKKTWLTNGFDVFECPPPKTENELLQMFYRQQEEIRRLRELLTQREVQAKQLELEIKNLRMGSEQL
# UniProt Q9P000, whole entry, looked up: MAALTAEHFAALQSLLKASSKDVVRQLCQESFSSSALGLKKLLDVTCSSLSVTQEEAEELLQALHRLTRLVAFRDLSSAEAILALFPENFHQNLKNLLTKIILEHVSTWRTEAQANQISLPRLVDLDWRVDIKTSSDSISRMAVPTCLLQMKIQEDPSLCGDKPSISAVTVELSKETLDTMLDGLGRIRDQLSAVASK
# UniProt P53621: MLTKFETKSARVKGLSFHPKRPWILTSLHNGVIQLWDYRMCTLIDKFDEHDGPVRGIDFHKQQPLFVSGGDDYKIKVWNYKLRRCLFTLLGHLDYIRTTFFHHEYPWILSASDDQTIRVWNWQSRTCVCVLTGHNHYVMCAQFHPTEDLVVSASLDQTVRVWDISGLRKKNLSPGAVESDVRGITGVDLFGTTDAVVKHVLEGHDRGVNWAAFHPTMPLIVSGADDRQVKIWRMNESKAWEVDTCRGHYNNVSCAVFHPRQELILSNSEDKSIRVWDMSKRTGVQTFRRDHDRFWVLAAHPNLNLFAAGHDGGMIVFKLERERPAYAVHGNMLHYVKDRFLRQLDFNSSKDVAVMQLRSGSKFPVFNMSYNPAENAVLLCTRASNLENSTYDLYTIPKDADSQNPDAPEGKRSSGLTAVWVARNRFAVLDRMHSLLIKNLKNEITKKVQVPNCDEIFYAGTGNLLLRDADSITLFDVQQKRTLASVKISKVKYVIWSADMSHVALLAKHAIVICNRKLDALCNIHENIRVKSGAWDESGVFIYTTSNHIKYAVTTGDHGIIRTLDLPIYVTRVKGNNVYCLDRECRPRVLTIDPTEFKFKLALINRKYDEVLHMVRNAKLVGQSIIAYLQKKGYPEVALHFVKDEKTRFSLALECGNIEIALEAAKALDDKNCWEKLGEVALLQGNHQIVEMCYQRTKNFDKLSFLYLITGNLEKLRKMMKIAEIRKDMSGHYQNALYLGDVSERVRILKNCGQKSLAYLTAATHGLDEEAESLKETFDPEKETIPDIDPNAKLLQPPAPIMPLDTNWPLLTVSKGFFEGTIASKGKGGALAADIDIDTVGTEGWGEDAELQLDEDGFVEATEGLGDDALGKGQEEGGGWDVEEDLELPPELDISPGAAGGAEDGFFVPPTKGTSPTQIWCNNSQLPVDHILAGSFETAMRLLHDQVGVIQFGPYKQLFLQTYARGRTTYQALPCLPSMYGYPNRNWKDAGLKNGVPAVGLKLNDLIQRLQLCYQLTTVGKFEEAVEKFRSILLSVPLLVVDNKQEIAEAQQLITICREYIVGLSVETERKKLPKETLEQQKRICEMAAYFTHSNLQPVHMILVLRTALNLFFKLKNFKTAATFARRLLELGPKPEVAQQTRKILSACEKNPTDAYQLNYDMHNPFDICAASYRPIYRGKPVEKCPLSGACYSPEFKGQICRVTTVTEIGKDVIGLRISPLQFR
# UniProt Q16630, whole entry, looked up: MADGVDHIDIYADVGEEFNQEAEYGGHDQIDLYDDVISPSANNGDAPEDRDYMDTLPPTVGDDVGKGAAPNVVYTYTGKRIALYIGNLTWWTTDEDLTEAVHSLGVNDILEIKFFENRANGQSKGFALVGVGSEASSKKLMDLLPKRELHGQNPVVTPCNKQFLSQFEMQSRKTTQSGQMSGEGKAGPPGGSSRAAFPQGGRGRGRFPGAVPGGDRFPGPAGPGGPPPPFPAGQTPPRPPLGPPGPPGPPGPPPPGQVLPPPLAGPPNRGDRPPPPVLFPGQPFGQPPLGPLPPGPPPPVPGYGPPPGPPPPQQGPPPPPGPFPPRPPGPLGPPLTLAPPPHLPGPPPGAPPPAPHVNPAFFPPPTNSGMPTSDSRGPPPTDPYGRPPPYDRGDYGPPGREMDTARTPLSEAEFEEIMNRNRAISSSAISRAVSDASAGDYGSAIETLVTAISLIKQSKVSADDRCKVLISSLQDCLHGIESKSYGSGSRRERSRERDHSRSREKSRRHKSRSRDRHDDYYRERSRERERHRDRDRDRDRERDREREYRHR
# UniProt Q8NI60: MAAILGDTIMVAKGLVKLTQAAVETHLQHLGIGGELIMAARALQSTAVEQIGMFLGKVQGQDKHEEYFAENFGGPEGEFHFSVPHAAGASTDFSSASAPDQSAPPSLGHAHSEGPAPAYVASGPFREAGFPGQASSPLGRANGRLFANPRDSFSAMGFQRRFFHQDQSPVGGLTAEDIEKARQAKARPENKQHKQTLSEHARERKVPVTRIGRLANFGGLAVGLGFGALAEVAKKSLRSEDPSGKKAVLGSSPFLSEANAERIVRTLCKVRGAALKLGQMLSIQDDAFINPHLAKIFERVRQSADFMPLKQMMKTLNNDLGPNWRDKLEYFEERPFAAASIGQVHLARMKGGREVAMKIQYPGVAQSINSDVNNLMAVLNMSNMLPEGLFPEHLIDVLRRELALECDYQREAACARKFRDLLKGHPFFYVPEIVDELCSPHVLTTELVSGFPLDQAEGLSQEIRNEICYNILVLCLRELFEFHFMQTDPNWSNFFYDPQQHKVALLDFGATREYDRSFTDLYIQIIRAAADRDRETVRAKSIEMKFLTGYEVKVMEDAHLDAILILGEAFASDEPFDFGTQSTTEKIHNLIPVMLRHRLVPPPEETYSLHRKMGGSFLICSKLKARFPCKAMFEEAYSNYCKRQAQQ
# Some of the results follow.
# Legend:
# Test in all cases: log2 fold change, soluble protein after heating vs DMSO (PISA); higher = thermal stabilisation; K562 lysate, 10 uM; active = over 0.2 and 3.5 SD of the protein, either way, in both replicates (recomputed)
# nilotinib = compound: Cc1cn(-c2cc(NC(=O)c3ccc(C)c(Nc4nccc(-c5cccnc5)n4)c3)cc(C(F)(F)F)c2)cn1 [nilotinib]
# Method in brief: (§1)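 Thermal stability, expressed as log-two fold change relative to solvent controls, is given from duplicates. Crude K562 extract in PBS pH 7.4 with 1 mM MgCl2, at 1 mg/mL protein, was treated with 10 μM compound for 30 min and heated in aliquots for 3 min across 48°C-58°C. After pooling, adjustment to 0.5% NP-40 at 4°C and centrifugation at 21,000xg for 90 min, supernatant protein was measured by TMTpro 16plex LC-MS/MS with channel sums equalised.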
# [1] = compound: Cc1nc(Nc2n[nH]c3c2CN(C(=O)N[C@H](CN(C)C)c2ccccc2)C3(C)C)c2sccc2n1
# Method in brief: as §1
# dasatinib = compound: Cc1nc(Nc2ncc(C(=O)Nc3c(C)cccc3Cl)s2)cc(N2CCN(CCO)CC2)n1 [dasatinib]
# Method in brief: as §1
# [2] = compound: Cc1ncc(-c2ccnc(Nc3ccc(S(C)(=O)=O)cc3)n2)n1C(C)C
# Method in brief: as §1
# [3] = compound: Cn1cc(-c2ccc3c(c2)CCN3C(=O)Cc2cccc(C(F)(F)F)c2)c2c(N)ncnc21
# Method in brief: as §1
# quisinostat = compound: Cn1cc(CNCC2CCN(c3ncc(C(=O)NO)cn3)CC2)c2ccccc21 [quisinostat]
# Method in brief: as §1
# tipifarnib = compound: Cn1cncc1[C@@](N)(c1ccc(Cl)cc1)c1ccc2c(c1)c(-c1cccc(Cl)c1)cc(=O)n2C [tipifarnib]
# Method in brief: as §1
# [4] = compound: NC(=O)Nc1cc(-c2cccc(F)c2)sc1C(=O)N[C@H]1CCCNC1
# Method in brief: as §1
# [5] = compound: NC(=O)c1cnc(N[C@@H]2CCCC[C@@H]2N)nc1Nc1cccc(-n2nccn2)c1
# Method in brief: as §1
# [6] = compound: NC1(c2ccc(-c3nc4ccn5c(=O)[nH]nc5c4cc3-c3ccccc3)cc2)CCC1
# Method in brief: as §1
# [7] = compound: NCC(=O)Nc1ccc(-n2nc(C(F)(F)F)cc2-c2ccc3c(ccc4ccccc43)c2)cc1
# Method in brief: as §1
# vorinostat = compound: O=C(CCCCCCC(=O)Nc1ccccc1)NO [vorinostat]
# Method in brief: as §1
# silmitasertib = compound: O=C(O)c1ccc2c(c1)nc(Nc1cccc(Cl)c1)c1ccncc12 [silmitasertib]
# Method in brief: as §1
# [8] = compound: O=C1NC(=O)C(c2cnc3ccccn23)=C1c1cn2c3c(cc(F)cc13)CN(C(=O)N1CCCCC1)CC2
# Method in brief: as §1
# entospletinib = compound: c1cn2cc(-c3ccc4cn[nH]c4c3)nc(Nc3ccc(N4CCOCC4)cc3)c2n1 [entospletinib]
# Method in brief: as §1
Target,log2 fold change (nilotinib),log2 fold change [1],log2 fold change (dasatinib),log2 fold change [2],log2 fold change [3],log2 fold change (quisinostat),log2 fold change (tipifarnib),log2 fold change [4],log2 fold change [5],log2 fold change [6],log2 fold change [7],log2 fold change (vorinostat),log2 fold change (silmitasertib),log2 fold change [8],log2 fold change (entospletinib)
CNOT6L (UniProt Q96LI5),inactive: -0.026,inactive: 0.016,inactive: -0.053,inactive: 0.001,inactive: 0.01,inactive: -0.054,inactive: -0.047,inactive: 0.055,inactive: -0.024,inactive: 0.003,inactive: 0.019,inactive: -0.032,inactive: 0.004,inactive: 0.017,inactive: 0
COMT (UniProt P21964),inactive: -0.007,inactive: -0.029,inactive: -0.02,inactive: -0.018,inactive: 0.02,inactive: -0.08,inactive: 0.013,inactive: 0.028,inactive: 0.005,inactive: 0.009,inactive: -0.106,active: -0.294,inactive: 0.04,inactive: 0.007,inactive: 0.015
CRABP2 (UniProt P29373),inactive: -0.063,inactive: -0.125,inactive: 0.076,inactive: -0.066,inactive: 0.006,inactive: -0.004,inactive: 0.061,inactive: -0.049,inactive: -0.036,inactive: -0.02,inactive: 0.169,inactive: 0.18,inactive: -0.05,inactive: 0.007,inactive: -0.209
COG8 (UniProt Q96MW5),inactive: 0.014,inactive: 0.046,inactive: -0.091,inactive: -0.05,inactive: 0.106,inactive: 0,inactive: -0.008,inactive: 0.037,inactive: -0.129,inactive: -0.01,inactive: 0.05,inactive: 0.09,inactive: -0.077,inactive: -0.003,inactive: 0.125
COPS6 (UniProt Q7L5N1),inactive: 0.017,inactive: -0.025,inactive: -0.004,inactive: -0.023,inactive: -0.027,inactive: 0.032,inactive: 0.067,inactive: -0.012,inactive: 0.005,inactive: 0.04,inactive: -0.17,inactive: 0.028,inactive: 0.049,inactive: 0.005,inactive: 0
COPS5 (UniProt Q92905),inactive: 0.008,inactive: -0.008,inactive: 0.026,inactive: -0.024,inactive: -0.004,inactive: -0.019,inactive: 0.01,inactive: -0.011,inactive: -0.022,inactive: -0.016,inactive: -0.017,inactive: 0.081,inactive: 0.015,inactive: 0.004,inactive: 0.023
CORO1B (UniProt Q9BR76),inactive: 0.001,inactive: -0.026,inactive: 0.002,inactive: -0.015,inactive: -0.007,inactive: 0.01,inactive: 0.012,inactive: -0.001,inactive: 0.008,inactive: -0.014,inactive: 0,inactive: -0.142,inactive: 0.013,inactive: -0.004,inactive: 0.013
COPS8 (UniProt Q99627),inactive: -0.014,inactive: 0.05,inactive: 0.001,inactive: 0.004,inactive: -0.08,inactive: -0.018,inactive: 0.004,inactive: -0.021,inactive: -0.036,inactive: -0.002,inactive: -0.115,inactive: 0.061,inactive: -0.034,inactive: -0.019,inactive: -0.05
COPS7A (UniProt Q9UBW8),inactive: 0.037,inactive: 0.014,inactive: 0.006,inactive: 0.037,inactive: 0.027,inactive: -0.021,inactive: 0.015,inactive: 0.024,inactive: 0.01,inactive: 0.015,inactive: -0.042,inactive: 0.041,inactive: 0.01,inactive: 0.003,inactive: 0.016
COA4 isoform 2 (UniProt Q9NYJ1),inactive: -0.01,inactive: 0.054,inactive: 0.012,inactive: 0.103,inactive: -0.017,inactive: -0.077,inactive: 0.087,inactive: -0.038,inactive: -0.016,inactive: -0.026,inactive: -0.108,inactive: 0.186,inactive: -0.118,inactive: 0.079,inactive: -0.038
CNOT1 (UniProt A5YKK6),inactive: 0.004,inactive: 0.009,inactive: -0.036,inactive: 0.006,inactive: 0.005,inactive: -0.012,inactive: -0.008,inactive: 0.01,inactive: 0.02,inactive: 0.011,inactive: -0.011,inactive: -0.165,inactive: 0.004,inactive: -0.004,inactive: -0.023
CNN2 (UniProt Q99439),inactive: -0.017,inactive: 0.007,inactive: -0.031,inactive: -0.009,inactive: -0.045,inactive: -0.013,inactive: -0.003,inactive: -0.034,inactive: -0.007,inactive: 0.017,inactive: 0.009,inactive: -0.089,inactive: -0.035,inactive: -0.03,inactive: 0.04
CORO2A (UniProt Q92828),inactive: -0.045,inactive: -0.007,inactive: -0.033,inactive: 0.001,inactive: 0.074,inactive: -0.04,inactive: 0.028,inactive: 0.021,inactive: 0.005,inactive: 0.057,inactive: -0.059,inactive: -0.049,inactive: 0.058,inactive: -0.05,inactive: 0.042
COMMD9 (UniProt Q9P000),inactive: 0.136,inactive: 0.008,inactive: 0,inactive: -0.156,inactive: -0.025,inactive: 0.048,inactive: 0.136,inactive: -0.054,inactive: -0.105,inactive: -0.011,inactive: -0.056,inactive: 0.025,inactive: -0.021,inactive: 0.02,inactive: -0.035
CNNM4 (UniProt Q6P4Q7),inactive: -0.001,inactive: 0.045,inactive: -0.001,inactive: 0.093,inactive: -0.005,inactive: -0.011,inactive: 0.055,inactive: -0.006,inactive: -0.027,inactive: -0.066,inactive: -0.018,inactive: 0.074,inactive: -0.053,inactive: -0.007,inactive: -0.048
COPB1 (UniProt P53618),inactive: 0.005,inactive: -0.007,inactive: 0.01,inactive: -0.003,inactive: 0.001,inactive: -0.046,inactive: -0.021,inactive: 0.016,inactive: 0.003,inactive: -0.012,inactive: 0.006,inactive: 0.008,inactive: -0.016,inactive: -0.001,inactive: 0.018
COPA isoform 2 (UniProt P53621),inactive: 0.003,inactive: -0.002,inactive: -0.023,inactive: -0.015,inactive: -0.01,inactive: -0.02,inactive: 0.004,inactive: 0.016,inactive: -0.001,inactive: -0.002,inactive: 0.006,inactive: -0.009,inactive: 0.01,inactive: -0.002,inactive: 0.005
CPSF6 isoform 2 (UniProt Q16630),inactive: 0.01,inactive: -0.055,inactive: -0.021,inactive: -0.006,inactive: 0.009,inactive: 0.102,inactive: 0.019,inactive: -0.032,inactive: 0.004,inactive: 0.052,inactive: 0.005,inactive: 0.073,inactive: -0.016,inactive: 0.012,inactive: 0.012
COQ8A (UniProt Q8NI60),inactive: 0.091,inactive: -0.013,inactive: 0.394,inactive: -0.211,inactive: -0.05,inactive: 0.082,inactive: 0.032,inactive: 0.051,inactive: 0.348,inactive: 0.004,inactive: -0.043,inactive: -0.042,inactive: -0.161,inactive: 0.016,inactive: 0.053
COG5 isoform 2 (UniProt Q9UP83),inactive: -0.023,inactive: 0.057,inactive: -0.153,inactive: -0.003,inactive: 0.037,inactive: -0.031,inactive: -0.019,inactive: 0.043,inactive: -0.081,inactive: -0.12,inactive: -0.005,active: -0.342,inactive: 0.073,inactive: -0.029,inactive: 0.038
COPE (UniProt O14579),inactive: -0.009,inactive: -0.011,inactive: -0.058,inactive: -0.057,inactive: -0.006,inactive: -0.117,inactive: 0.015,inactive: 0.026,inactive: 0.006,inactive: -0.02,inactive: -0.105,inactive: -0.002,inactive: 0,inactive: -0.029,inactive: -0.044

# Reformatted with tabs: entries from further up.
Target	log2 fold change (nilotinib)	log2 fold change [1]	log2 fold change (dasatinib)	log2 fold change [2]	log2 fold change [3]	log2 fold change (quisinostat)	log2 fold change (tipifarnib)	log2 fold change [4]	log2 fold change [5]	log2 fold change [6]	log2 fold change [7]	log2 fold change (vorinostat)	log2 fold change (silmitasertib)	log2 fold change [8]	log2 fold change (entospletinib)
CNOT6L (UniProt Q96LI5)	inactive: -0.026	inactive: 0.016	inactive: -0.053	inactive: 0.001	inactive: 0.01	inactive: -0.054	inactive: -0.047	inactive: 0.055	inactive: -0.024	inactive: 0.003	inactive: 0.019	inactive: -0.032	inactive: 0.004	inactive: 0.017	inactive: 0
COPE (UniProt O14579)	inactive: -0.009	inactive: -0.011	inactive: -0.058	inactive: -0.057	inactive: -0.006	inactive: -0.117	inactive: 0.015	inactive: 0.026	inactive: 0.006	inactive: -0.02	inactive: -0.105	inactive: -0.002	inactive: 0	inactive: -0.029	inactive: -0.044
